Reference: the supplement of paper PMC10849652
Some of the results follow.

Sequences of proteins named here, by UniProt entry; tags and fusion partners are left off. A change or cut given only in a name is not applied to a line headed by its entry.
UniProt O95379: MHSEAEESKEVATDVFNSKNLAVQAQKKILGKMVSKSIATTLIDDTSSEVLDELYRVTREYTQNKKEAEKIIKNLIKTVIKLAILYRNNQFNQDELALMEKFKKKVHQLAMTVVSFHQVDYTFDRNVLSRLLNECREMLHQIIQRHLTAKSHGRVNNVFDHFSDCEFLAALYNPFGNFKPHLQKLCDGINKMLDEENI
UniProt O96008: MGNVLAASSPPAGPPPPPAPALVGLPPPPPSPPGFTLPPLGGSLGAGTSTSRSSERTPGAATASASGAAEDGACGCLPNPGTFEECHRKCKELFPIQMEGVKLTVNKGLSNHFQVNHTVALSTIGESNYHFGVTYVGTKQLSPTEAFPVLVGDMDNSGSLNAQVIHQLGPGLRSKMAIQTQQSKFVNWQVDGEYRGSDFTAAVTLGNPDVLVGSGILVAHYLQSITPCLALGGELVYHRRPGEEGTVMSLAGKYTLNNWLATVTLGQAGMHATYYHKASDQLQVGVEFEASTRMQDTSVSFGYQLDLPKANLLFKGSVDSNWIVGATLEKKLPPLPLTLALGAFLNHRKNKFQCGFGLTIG
UniProt Q96JJ7: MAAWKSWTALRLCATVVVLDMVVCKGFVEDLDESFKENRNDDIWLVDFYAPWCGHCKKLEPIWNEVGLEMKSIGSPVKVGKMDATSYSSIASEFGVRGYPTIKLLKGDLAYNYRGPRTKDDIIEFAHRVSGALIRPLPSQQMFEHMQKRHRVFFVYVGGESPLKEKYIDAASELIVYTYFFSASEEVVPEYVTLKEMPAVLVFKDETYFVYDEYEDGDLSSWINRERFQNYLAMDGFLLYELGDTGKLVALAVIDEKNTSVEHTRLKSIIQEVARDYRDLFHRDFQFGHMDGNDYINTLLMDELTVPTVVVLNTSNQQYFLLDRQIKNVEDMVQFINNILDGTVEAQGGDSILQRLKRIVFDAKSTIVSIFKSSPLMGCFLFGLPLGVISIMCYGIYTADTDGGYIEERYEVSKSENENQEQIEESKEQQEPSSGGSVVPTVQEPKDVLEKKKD
UniProt Q9Y5L0: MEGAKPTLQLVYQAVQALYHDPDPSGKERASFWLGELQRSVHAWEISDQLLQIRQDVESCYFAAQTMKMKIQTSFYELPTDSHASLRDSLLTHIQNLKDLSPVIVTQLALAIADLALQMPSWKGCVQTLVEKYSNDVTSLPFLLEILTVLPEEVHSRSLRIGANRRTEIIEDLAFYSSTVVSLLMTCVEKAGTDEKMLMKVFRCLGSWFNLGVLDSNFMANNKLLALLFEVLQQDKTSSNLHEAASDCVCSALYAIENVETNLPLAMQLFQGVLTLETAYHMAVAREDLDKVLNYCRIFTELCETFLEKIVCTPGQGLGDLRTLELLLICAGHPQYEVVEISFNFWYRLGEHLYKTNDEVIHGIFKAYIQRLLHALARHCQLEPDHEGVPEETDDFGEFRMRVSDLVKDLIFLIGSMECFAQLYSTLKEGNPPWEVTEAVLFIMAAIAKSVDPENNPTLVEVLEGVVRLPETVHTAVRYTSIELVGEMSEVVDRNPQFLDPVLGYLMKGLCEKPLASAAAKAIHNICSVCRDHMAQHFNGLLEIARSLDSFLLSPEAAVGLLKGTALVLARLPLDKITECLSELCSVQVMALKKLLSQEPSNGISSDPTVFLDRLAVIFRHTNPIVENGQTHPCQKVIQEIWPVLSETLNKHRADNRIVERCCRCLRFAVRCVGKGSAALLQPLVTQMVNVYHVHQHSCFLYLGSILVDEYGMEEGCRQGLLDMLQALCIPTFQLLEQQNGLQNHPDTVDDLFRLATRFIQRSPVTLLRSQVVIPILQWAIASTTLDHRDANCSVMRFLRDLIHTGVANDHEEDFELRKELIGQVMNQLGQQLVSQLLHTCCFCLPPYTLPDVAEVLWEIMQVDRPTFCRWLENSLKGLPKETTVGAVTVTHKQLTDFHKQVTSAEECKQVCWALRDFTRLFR
UniProt P11388: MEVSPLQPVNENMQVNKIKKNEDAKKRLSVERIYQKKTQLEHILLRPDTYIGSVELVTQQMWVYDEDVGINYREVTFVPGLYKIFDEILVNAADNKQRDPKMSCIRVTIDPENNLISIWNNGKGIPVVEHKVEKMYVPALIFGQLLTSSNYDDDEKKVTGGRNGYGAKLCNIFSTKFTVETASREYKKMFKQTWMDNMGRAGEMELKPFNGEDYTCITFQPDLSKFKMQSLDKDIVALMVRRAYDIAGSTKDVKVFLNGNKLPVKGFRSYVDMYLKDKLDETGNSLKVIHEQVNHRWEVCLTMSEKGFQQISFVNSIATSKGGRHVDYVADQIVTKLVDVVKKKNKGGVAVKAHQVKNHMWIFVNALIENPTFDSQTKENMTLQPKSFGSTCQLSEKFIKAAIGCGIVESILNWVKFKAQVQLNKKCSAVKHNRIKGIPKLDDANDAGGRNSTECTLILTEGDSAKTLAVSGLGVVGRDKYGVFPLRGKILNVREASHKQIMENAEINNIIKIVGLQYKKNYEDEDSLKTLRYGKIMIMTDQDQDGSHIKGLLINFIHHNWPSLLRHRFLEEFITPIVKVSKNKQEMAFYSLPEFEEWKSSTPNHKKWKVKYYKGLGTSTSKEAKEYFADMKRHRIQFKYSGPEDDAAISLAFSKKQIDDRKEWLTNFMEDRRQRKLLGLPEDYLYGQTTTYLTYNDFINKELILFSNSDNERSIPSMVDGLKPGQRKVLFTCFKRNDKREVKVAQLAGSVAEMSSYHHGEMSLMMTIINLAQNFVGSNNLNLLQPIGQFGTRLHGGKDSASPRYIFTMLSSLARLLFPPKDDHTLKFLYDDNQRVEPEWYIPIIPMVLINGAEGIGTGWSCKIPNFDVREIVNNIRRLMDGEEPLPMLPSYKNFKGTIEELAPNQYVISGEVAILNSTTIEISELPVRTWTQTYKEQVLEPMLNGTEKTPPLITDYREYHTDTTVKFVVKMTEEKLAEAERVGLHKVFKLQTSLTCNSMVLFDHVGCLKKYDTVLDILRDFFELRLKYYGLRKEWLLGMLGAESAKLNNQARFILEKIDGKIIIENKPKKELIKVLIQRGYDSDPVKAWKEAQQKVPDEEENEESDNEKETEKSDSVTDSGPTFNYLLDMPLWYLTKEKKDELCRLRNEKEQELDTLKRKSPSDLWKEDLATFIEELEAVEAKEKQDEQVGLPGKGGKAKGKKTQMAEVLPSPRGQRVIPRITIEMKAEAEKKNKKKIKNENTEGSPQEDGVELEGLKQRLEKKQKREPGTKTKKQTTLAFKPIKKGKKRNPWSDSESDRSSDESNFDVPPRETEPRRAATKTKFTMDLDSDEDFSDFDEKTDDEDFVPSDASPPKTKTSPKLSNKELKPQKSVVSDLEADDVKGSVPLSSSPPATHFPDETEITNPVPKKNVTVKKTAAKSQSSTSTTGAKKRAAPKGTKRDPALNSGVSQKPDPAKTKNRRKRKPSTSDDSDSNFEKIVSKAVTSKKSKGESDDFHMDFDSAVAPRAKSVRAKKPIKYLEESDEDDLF
UniProt Q9NQ34: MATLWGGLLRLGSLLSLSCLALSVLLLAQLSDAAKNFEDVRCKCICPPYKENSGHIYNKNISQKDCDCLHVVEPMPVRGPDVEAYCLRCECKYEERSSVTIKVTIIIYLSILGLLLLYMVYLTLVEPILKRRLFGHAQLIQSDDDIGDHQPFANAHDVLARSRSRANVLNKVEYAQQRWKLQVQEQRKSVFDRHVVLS
UniProt Q8N511: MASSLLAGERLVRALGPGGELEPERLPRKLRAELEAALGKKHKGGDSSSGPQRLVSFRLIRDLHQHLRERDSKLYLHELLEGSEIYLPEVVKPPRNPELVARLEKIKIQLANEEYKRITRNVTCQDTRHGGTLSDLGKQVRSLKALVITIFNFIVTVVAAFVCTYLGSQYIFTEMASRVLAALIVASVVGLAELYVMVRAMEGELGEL
UniProt Q16890: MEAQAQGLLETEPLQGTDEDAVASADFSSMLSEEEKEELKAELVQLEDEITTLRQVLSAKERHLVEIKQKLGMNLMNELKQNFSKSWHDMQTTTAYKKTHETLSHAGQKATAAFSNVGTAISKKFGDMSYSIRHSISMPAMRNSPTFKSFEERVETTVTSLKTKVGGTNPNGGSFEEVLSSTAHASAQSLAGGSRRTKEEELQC
UniProt O14787: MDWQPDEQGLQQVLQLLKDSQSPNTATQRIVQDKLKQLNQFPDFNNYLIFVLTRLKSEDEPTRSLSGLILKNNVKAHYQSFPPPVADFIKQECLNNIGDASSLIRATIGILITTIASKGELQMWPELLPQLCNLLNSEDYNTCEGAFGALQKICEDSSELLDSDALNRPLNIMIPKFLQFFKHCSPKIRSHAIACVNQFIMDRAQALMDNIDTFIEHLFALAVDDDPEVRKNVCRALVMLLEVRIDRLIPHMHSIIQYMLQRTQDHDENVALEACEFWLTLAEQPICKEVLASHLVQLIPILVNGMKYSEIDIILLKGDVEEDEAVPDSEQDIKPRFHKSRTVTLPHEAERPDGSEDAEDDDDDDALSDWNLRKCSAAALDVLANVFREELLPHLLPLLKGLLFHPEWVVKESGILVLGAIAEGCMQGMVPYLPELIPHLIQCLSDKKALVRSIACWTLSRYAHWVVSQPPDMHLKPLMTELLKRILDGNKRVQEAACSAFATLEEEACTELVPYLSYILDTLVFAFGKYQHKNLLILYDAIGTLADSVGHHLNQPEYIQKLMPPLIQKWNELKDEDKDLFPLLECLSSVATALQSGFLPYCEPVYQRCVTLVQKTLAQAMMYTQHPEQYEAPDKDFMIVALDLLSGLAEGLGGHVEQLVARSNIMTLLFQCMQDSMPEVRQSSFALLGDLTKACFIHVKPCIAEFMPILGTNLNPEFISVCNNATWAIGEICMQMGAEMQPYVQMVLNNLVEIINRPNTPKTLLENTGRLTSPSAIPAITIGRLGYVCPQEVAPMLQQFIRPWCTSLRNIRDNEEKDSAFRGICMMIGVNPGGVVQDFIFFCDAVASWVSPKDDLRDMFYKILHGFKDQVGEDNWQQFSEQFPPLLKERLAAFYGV
UniProt Q92973: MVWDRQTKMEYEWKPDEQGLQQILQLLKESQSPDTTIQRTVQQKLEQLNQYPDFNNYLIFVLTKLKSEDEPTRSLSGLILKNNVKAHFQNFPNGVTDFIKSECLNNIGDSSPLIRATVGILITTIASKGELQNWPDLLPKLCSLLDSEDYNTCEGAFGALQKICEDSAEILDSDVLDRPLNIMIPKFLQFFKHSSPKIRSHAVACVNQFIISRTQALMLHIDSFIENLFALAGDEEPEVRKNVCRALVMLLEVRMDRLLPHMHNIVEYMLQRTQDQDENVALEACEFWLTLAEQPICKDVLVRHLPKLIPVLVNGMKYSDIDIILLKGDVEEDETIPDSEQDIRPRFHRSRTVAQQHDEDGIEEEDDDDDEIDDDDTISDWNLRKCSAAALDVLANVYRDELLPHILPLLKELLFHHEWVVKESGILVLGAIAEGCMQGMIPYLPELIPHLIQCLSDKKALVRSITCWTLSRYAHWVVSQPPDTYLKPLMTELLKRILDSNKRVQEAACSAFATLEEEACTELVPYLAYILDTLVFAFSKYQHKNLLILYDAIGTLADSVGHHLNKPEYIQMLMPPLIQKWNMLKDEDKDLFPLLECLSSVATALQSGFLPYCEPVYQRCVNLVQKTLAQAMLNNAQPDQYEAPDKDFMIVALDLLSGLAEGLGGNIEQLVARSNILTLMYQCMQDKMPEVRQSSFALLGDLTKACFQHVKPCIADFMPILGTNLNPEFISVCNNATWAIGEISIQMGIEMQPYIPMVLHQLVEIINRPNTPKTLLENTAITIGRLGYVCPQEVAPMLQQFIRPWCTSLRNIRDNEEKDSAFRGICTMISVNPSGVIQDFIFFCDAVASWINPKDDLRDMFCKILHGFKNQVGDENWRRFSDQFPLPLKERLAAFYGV
UniProt Q13595: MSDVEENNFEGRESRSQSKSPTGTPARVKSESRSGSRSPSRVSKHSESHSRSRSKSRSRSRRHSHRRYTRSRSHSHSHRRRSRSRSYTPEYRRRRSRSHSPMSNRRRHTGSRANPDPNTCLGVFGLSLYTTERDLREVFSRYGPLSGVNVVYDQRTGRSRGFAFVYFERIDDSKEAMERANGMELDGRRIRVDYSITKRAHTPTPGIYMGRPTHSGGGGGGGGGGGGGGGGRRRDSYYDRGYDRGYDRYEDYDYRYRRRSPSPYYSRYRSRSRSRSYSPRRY
UniProt O14656: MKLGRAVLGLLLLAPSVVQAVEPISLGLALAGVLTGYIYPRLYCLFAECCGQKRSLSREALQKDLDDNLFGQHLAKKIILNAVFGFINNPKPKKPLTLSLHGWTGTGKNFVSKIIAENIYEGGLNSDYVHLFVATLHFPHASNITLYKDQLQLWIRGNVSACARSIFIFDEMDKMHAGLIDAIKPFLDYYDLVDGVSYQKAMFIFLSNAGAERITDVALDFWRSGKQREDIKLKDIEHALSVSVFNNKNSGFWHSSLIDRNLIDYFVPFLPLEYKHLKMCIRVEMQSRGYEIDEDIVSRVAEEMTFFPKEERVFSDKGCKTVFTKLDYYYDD

What was measured:
Test in all cases: log2 fold change, soluble protein after heating vs DMSO (PISA); higher = thermal stabilisation; K562 lysate, 10 uM; active = over 0.2 and 3.5 SD of the protein, either way, in both replicates (recomputed)
vemurafenib = compound: CCCS(=O)(=O)Nc1ccc(F)c(C(=O)c2c[nH]c3ncc(-c4ccc(Cl)cc4)cc23)c1F [vemurafenib]
Summary of the method: (§1)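 A 30 min treatment with 10 μM compound was applied to crude K562 extract at 1 mg/mL protein in PBS pH 7.4 with 1 mM MgCl2. Heating for 3 min spanned 48°C-58°C, after which aliquots were pooled, adjusted to 0.5% NP-40 at 4°C and spun at 21,000xg for 90 min. TMTpro 16plex LC-MS/MS of the supernatant, with channel sums equalised, gave values recorded as log-two fold change in thermal stability against solvent controls, from duplicates.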

[1] = compound: CCCS(=O)(=O)Nc1ccc(F)c(C(=O)c2c[nH]c3ncc(Cl)cc23)c1F
Summary of the method: as §1

barasertib = compound: CCN(CCCOc1ccc2c(Nc3cc(CC(=O)Nc4cccc(F)c4)[nH]n3)ncnc2c1)CCOP(=O)(O)O [barasertib]
Summary of the method: as §1

[2] = compound: CC[C@@H]1C(=O)N(C)c2cnc(Nc3ccc(C(=O)NC4CCN(C)CC4)cc3OC)nc2N1C1CCCC1
Summary of the method: as §1

volasertib = compound: CC[C@@H]1C(=O)N(C)c2cnc(Nc3ccc(C(=O)N[C@H]4CC[C@H](N5CCN(CC6CC6)CC5)CC4)cc3OC)nc2N1C(C)C [volasertib]
Summary of the method: as §1

[3] = compound: CCn1c(C(=O)N(C2CC2)C2CC2)cc2c3c(ncn3C)c(Nc3cc(C)n(C)n3)nc21
Summary of the method: as §1

[4] = compound: CCn1cc(-c2ccnc3[nH]c(-c4cccc(CN(C)C)c4)cc23)c(-c2ccc(NC(=O)N(C)C)cc2)n1
Summary of the method: as §1

[5] = compound: CN1CCC(CNc2ccc3ncc(-c4cccc(OC(F)(F)F)c4)n3n2)CC1
Summary of the method: as §1

saracatinib = compound: CN1CCN(CCOc2cc(OC3CCOCC3)c3c(Nc4c(Cl)ccc5c4OCO5)ncnc3c2)CC1 [saracatinib]
Summary of the method: as §1

sotrastaurin = compound: CN1CCN(c2nc(C3=C(c4c[nH]c5ccccc45)C(=O)NC3=O)c3ccccc3n2)CC1 [sotrastaurin]
Summary of the method: as §1

alvocidib = compound: CN1CC[C@H](c2c(O)cc(O)c3c(=O)cc(-c4ccccc4Cl)oc23)[C@H](O)C1 [alvocidib]
Summary of the method: as §1

Tubastatin A = compound: CN1CCc2c(c3ccccc3n2Cc2ccc(C(=O)NO)cc2)C1 [Tubastatin A]
Summary of the method: as §1

[6] = compound: CNC(=O)C1=CC=CC=C1NC2=NC(=NC=C2Cl)NC3=C(C=C(C=C3)N4CCOCC4)OC
Summary of the method: as §1

defactinib = compound: CNC(=O)c1ccc(Nc2ncc(C(F)(F)F)c(NCc3nccnc3N(C)S(C)(=O)=O)n2)cc1 [defactinib]
Summary of the method: as §1

[7] = compound: CNc1nc(-c2ccc3c(N)n[nH]c3c2)cc(N2C[C@@H](C(=O)NC3CCCCC3)CC[C@H]2C)n1
Summary of the method: as §1

encorafenib = compound: COC(=O)N[C@@H](C)CNc1nccc(-c2cn(C(C)C)nc2-c2cc(Cl)cc(NS(C)(=O)=O)c2F)n1 [encorafenib]
Summary of the method: as §1

[8] = compound: COC(=O)[C@H](CCSC)NC(=O)C1=C(C=C(C=C1)NC[C@H](CS)N)C2=CC=CC=C2
Summary of the method: as §1

alisertib = compound: COc1cc(Nc2ncc3c(n2)-c2ccc(Cl)cc2C(c2c(F)cccc2OC)=NC3)ccc1C(=O)O [alisertib]
Summary of the method: as §1

[9] = compound: COc1cc2nc(-c3cc(F)ccc3O)nc(N[C@@H]3CNC[C@H]3C(C)(C)O)c2cc1OC
Summary of the method: as §1

gefitinib = compound: COc1cc2ncnc(Nc3ccc(F)c(Cl)c3)c2cc1OCCCN1CCOCC1 [gefitinib]
Summary of the method: as §1

Measured: log2 fold change

TNFAIP8 isoform 4 (UniProt O95379)
inactive: vemurafenib -0.013 | [1] -0.015 | barasertib 0.015 | [2] 0 | volasertib 0.015 | [3] 0.046 | [4] 0.007 | [5] -0.03 | saracatinib 0.038 | sotrastaurin 0.019 | alvocidib -0.058 | Tubastatin A 0.022 | [6] 0.005 | defactinib -0.079 | [7] -0.068 | encorafenib -0.045 | [8] -0.076 | alisertib -0.065 | [9] 0.014 | gefitinib 0.013

TOMM40 (UniProt O96008)
inactive: vemurafenib 0.004 | [1] 0.015 | barasertib -0.026 | [2] 0.021 | volasertib 0.017 | [3] -0.023 | [4] -0.034 | [5] 0.062 | saracatinib 0.015 | sotrastaurin -0.025 | alvocidib -0.03 | Tubastatin A 0.045 | [6] -0.012 | defactinib 0.011 | [7] 0.022 | encorafenib 0.011 | [8] -0.01 | alisertib -0.012 | [9] 0.025 | gefitinib 0

TMX3 (UniProt Q96JJ7)
inactive: vemurafenib 0.039 | [1] 0.016 | barasertib 0.026 | [2] 0.015 | volasertib -0.01 | [3] 0.024 | [4] -0.132 | [5] 0.011 | saracatinib 0.002 | sotrastaurin -0.003 | alvocidib -0.012 | Tubastatin A 0.014 | [6] -0.013 | defactinib -0.014 | [7] 0.009 | encorafenib 0.02 | [8] -0.046 | alisertib -0.043 | [9] 0.053 | gefitinib 0.029

TNPO3 (UniProt Q9Y5L0)
inactive: vemurafenib 0.024 | [1] 0.003 | barasertib 0.019 | [2] 0.009 | volasertib -0.008 | [3] 0.008 | [4] 0.005 | [5] 0.023 | saracatinib -0.001 | sotrastaurin -0.004 | alvocidib 0.003 | Tubastatin A -0.04 | [6] 0 | defactinib -0.007 | [7] -0.007 | encorafenib 0 | [8] -0.108 | alisertib -0.001 | [9] 0.023 | gefitinib -0.018

TOP2A isoform 4 (UniProt P11388)
inactive: vemurafenib 0.032 | [1] 0.022 | barasertib 0.021 | [2] 0.01 | volasertib -0.01 | [3] -0.029 | [4] -0.152 | [5] 0.046 | saracatinib 0.07 | sotrastaurin 0.017 | alvocidib -0.045 | Tubastatin A -0.043 | [6] 0.049 | defactinib 0.006 | [7] 0.014 | encorafenib 0.02 | [8] 0.048 | alisertib 0.039 | [9] -0.014 | gefitinib -0.022

Taken from the listing (2 entries):
TNPO3 (UniProt Q9Y5L0)
inactive: vemurafenib 0.024 | [1] 0.003 | barasertib 0.019 | [2] 0.009 | volasertib -0.008 | [3] 0.008 | [4] 0.005 | [5] 0.023 | saracatinib -0.001 | sotrastaurin -0.004 | alvocidib 0.003 | Tubastatin A -0.04 | [6] 0 | defactinib -0.007 | [7] -0.007 | encorafenib 0 | [8] -0.108 | alisertib -0.001 | [9] 0.023 | gefitinib -0.018

TOP2A isoform 4 (UniProt P11388)
inactive: vemurafenib 0.032 | [1] 0.022 | barasertib 0.021 | [2] 0.01 | volasertib -0.01 | [3] -0.029 | [4] -0.152 | [5] 0.046 | saracatinib 0.07 | sotrastaurin 0.017 | alvocidib -0.045 | Tubastatin A -0.043 | [6] 0.049 | defactinib 0.006 | [7] 0.014 | encorafenib 0.02 | [8] 0.048 | alisertib 0.039 | [9] -0.014 | gefitinib -0.022

(further entries)

TMEM9B (UniProt Q9NQ34)
inactive: vemurafenib -0.034 | [1] 0.008 | barasertib 0.075 | [2] 0 | volasertib 0.079 | [3] 0.143 | [4] 0.146 | [5] -0.052 | saracatinib 0.032 | sotrastaurin -0.003 | alvocidib 0.102 | Tubastatin A -0.075 | [6] -0.042 | defactinib 0.139 | [7] -0.077 | encorafenib 0.158 | [8] 0.055 | alisertib 0.034 | [9] 0.067 | gefitinib -0.007

TMEM199 (UniProt Q8N511)
inactive: vemurafenib 0 | [1] 0.026 | barasertib 0.009 | [2] 0.023 | volasertib 0 | [3] -0.003 | [4] -0.06 | [5] 0.054 | saracatinib 0.048 | sotrastaurin 0.035 | alvocidib -0.032 | Tubastatin A 0.097 | [6] -0.035 | defactinib -0.023 | [7] -0.001 | encorafenib -0.011 | [8] -0.093 | alisertib 0 | [9] -0.007 | gefitinib 0.001

TPD52L1 (UniProt Q16890)
inactive: vemurafenib -0.017 | [1] -0.005 | barasertib 0.027 | [2] 0.062 | volasertib 0.043 | [3] 0.016 | [4] 0.048 | [5] 0.089 | saracatinib 0.033 | sotrastaurin -0.045 | alvocidib -0.016 | Tubastatin A 0.072 | [6] -0.017 | defactinib 0.038 | [7] 0.021 | encorafenib 0.031 | [8] 0.032 | alisertib 0.002 | [9] 0.077 | gefitinib 0.011

TNFAIP2 (UniProt Q03169)
inactive: vemurafenib 0.093 | [1] 0.009 | barasertib 0.071 | [2] 0.257 | volasertib 0.035 | [3] -0.221 | [4] -0.222 | [5] 0.047 | saracatinib -0.018 | sotrastaurin 0.002 | alvocidib -0.034 | Tubastatin A 0.166 | [6] -0.005 | defactinib -0.014 | [7] 0.176 | encorafenib -0.094 | [8] 0.118 | alisertib -0.031 | [9] 0.174 | gefitinib 0.053

TNPO2 (UniProt O14787)
inactive: vemurafenib 0.009 | [1] 0.027 | barasertib -0.022 | [2] -0.06 | volasertib -0.001 | [3] -0.002 | [4] 0.098 | [5] -0.02 | saracatinib -0.008 | sotrastaurin 0.017 | alvocidib -0.01 | Tubastatin A -0.069 | [6] 0.012 | defactinib 0.001 | [7] 0.053 | encorafenib 0 | [8] 0.039 | alisertib -0.003 | [9] 0.004 | gefitinib -0.003

TOE1 (UniProt Q96GM8)
inactive: vemurafenib 0.052 | [1] 0.018 | barasertib -0.053 | [2] -0.051 | volasertib -0.031 | [3] -0.042 | [4] -0.022 | [5] -0.005 | saracatinib -0.029 | sotrastaurin 0.007 | alvocidib -0.01 | Tubastatin A -0.136 | [6] 0.027 | defactinib 0.019 | [7] -0.044 | encorafenib -0.034 | [8] 0.165 | alisertib -0.041 | [9] -0.011 | gefitinib -0.047

TNPO1 (UniProt Q92973)
inactive: vemurafenib -0.012 | [1] 0 | barasertib -0.025 | [2] -0.008 | volasertib 0.017 | [3] 0.008 | [4] 0.078 | [5] -0.018 | saracatinib 0.014 | sotrastaurin 0.029 | alvocidib 0.103 | Tubastatin A -0.025 | [6] 0.001 | defactinib 0.005 | [7] -0.012 | encorafenib 0 | [8] 0.028 | alisertib 0.013 | [9] 0.01 | gefitinib 0.006

TRA2A (UniProt Q13595)
inactive: vemurafenib -0.197 | [1] -0.033 | barasertib -0.194 | [2] -0.037 | volasertib -0.052 | [3] 0.073 | [4] -0.023 | [5] 0.07 | saracatinib 0.074 | sotrastaurin 0 | alvocidib -0.007 | Tubastatin A -0.079 | [6] -0.033 | defactinib 0.171 | [7] 0.031 | encorafenib -0.017 | [8] 0.068 | alisertib -0.188 | [9] 0.017 | gefitinib 0.118

TMTC3 (UniProt Q6ZXV5)
inactive: vemurafenib -0.042 | [1] -0.021 | barasertib 0.056 | [2] -0.029 | volasertib -0.021 | [3] 0.045 | [4] 0.253 | [5] -0.045 | saracatinib -0.011 | sotrastaurin 0.037 | alvocidib 0.011 | Tubastatin A -0.011 | [6] 0.009 | defactinib 0.03 | [7] 0.027 | encorafenib -0.025 | [8] 0.006 | alisertib -0.081 | [9] -0.011 | gefitinib -0.027

TOR1A (UniProt O14656)
inactive: vemurafenib 0.029 | [1] -0.009 | barasertib -0.014 | [2] -0.002 | volasertib -0.014 | [3] 0.044 | [4] -0.009 | [5] 0.018 | saracatinib 0.011 | sotrastaurin 0.004 | alvocidib -0.009 | Tubastatin A 0.045 | [6] 0.005 | defactinib 0.009 | [7] 0.004 | encorafenib 0.034 | [8] 0 | alisertib 0.036 | [9] 0.025 | gefitinib 0.007

TMEM219 (UniProt Q86XT9)
inactive: vemurafenib -0.122 | [1] 0.003 | barasertib -0.017 | [2] -0.228 | volasertib -0.068 | [3] -0.059 | [4] 0.06 | [5] 0.061 | saracatinib -0.019 | sotrastaurin -0.014 | alvocidib -0.004 | Tubastatin A 0.063 | [6] 0.069 | defactinib 0.111 | [7] 0.098 | encorafenib 0.195 | [8] -0.093 | alisertib -0.057 | [9] -0.053 | gefitinib 0.128
